Measurements published in publication PMC6368627.
No constants are given. Whether binding was seen depends on the method and setting. In cells and extracts the contact can be indirect. Here binding means that the protein was enriched with, or labelled near, the bait; the list need not be complete. For part of these data: No binding means not detected with the bait.

Amino acid sequences for entries named in this document (tags omitted).
UniProt Q01338: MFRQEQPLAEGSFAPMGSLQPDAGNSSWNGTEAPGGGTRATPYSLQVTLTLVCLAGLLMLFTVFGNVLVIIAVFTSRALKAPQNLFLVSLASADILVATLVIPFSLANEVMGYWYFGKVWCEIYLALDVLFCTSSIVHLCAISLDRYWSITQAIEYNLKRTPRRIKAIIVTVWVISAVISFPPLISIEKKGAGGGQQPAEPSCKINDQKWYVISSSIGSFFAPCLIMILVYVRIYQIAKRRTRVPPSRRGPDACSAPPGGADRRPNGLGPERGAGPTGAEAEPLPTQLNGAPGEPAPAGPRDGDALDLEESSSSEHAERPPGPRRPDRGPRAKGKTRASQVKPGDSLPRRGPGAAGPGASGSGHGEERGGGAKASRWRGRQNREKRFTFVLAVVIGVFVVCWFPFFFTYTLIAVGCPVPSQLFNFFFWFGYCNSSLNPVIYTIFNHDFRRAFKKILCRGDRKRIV
UniProt P63216: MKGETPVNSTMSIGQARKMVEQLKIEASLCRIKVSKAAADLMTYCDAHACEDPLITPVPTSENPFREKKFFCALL
UniProt Q61016: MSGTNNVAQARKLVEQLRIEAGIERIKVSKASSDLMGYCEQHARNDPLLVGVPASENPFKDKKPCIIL

B1: G protein γ4 subunit (protein, UniProt P50153 1-75)
chain: MKEGMSNNSTTSISQARKAVEQLKMEACMDRVKVSQAASDLLAYCEAHVREDPLIIPVPASENPFREKKFFCTIL
B2: G protein γ13 subunit (protein, UniProt Q9JMF3 1-67)
chain: MEEWDVPQMKKEVESLKYQLAFKREMSSKTIPELLKWIEDGIPKDPFLNPDLMKNNPWVEKAKCTIL

Legend:
[1] = target: Hemagglutinin tagged (HA)-α2a adrenergic receptor (knock-in mouse) (mouse) (UniProt Q01338); assay: affinity purification with mass spectrometry; co-IP with anti-HA from synaptosomes of HA-α2aAR mice stimulated with 100 µM epinephrine, DSP cross-linked; Gβ and Gγ bands excised from SDS-PAGE gel, quantitative MRM with heavy labeled peptides; controls WT no epi, HA-α2aAR no epi, WT + epi
[2] = target: FLAG-α2a adrenergic receptor (transgenic mouse, Dbh promoter, on α2aAR knockout background) (UniProt Q01338); assay: affinity purification with mass spectrometry; co-IP with anti-FLAG from synaptosomes of FLAG-α2aAR mice stimulated with 100 µM epinephrine, DSP cross-linked; eluted with FLAG peptide, TCA-precipitated, trypsin-digested, quantitative MRM; controls KO no epi, FLAG-α2aAR no epi, KO + epi

Molecule	binding [1]	binding [2]
G protein γ3 subunit (from UniProt P63216 1-75)	binds	binds
G protein γ7 subunit (from UniProt Q61016 1-68)		no binding
B1	binds	binds
B2		no binding
